The results in this text go back to the supplement of paper PMC12593923.

Counter-ions that a name gives are not always drawn. Some well-known active drugs show little effect in this data set, so a weak value is uncertain.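 OVCAR3, described as chemosensitive, is one of three high-grade serous ovarian cancer lines that differ in chemosensitivity. Toxicity was scaled from DMSO vehicle wells to fully lysed wells; scores came from fitted multi-dose response curves, and the authors treated scores above 5 as indicating drug sensitivity.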

Some test systems named below: Kuramochi; OVCAR3; OVCAR4.
Holding throughout (assay): drug sensitivity score (DSS2, cytotoxicity, CellTox Green); higher = more cytotoxic / more sensitive; extreme values may be limits of the assay
Common to all, as to settings: 72 h; doses 0.5, 1, 5 µM

Regarding `CCCCCCCCCCC[C@@H](C[C@@H]1OC(=O)[C@H]1CCCCCC)OC(=O)[C@H](CC(C)C)NC=O` [Orlistat], the drug sensitivity score with Kuramochi, with OVCAR3 and in the test on OVCAR4 was 0 DSS in each case.
Turning to `Cc1ncc(C[n+]2csc(CCO)c2C)c(N)n1` [Thiamine (hydrochloride)], the drug sensitivity score in the test with Kuramochi, with OVCAR3 and with OVCAR4 was 0 DSS each time.
Consider `N=c1ccn2c(n1)O[C@H]1[C@H](O)[C@@H](CO)O[C@H]12` [Ancitabine (hydrochloride)], for which the drug sensitivity score with Kuramochi, with OVCAR3 and with OVCAR4 was 0 DSS each time.
On to `Nc1nc(=S)c2[nH]cnc2[nH]1` [6-Thioguanine], for which the drug sensitivity score in the test on Kuramochi, in the test with OVCAR3 and with OVCAR4 was 0 DSS each time.
Consider `COc1cc2c(c(OC)c1OC)-c1ccc(OC)c(=O)cc1[C@@H](NC(C)=O)CC2` [Colchicine], for which the drug sensitivity score with Kuramochi amounted to 2.6 DSS; with OVCAR3, 4.9 DSS; with OVCAR4, 0 DSS.
For `CCCCc1oc2ccc(NS(C)(=O)=O)cc2c1C(=O)c1ccc(OCCCN(CCCC)CCCC)cc1` [Dronedarone], in that order: 0 DSS, 0.3 DSS and 0.2 DSS.
For `Nc1ncnc2c1ncn2[C@@H]1O[C@H](CO)[C@@H](O)[C@H]1O` [Adenosine], in that order: 0 DSS, 0 DSS and 0 DSS.
As for `CC(=O)Oc1ccccc1C(=O)O` [Aspirin], the drug sensitivity score in the test on Kuramochi worked out at 0 DSS; in the test with OVCAR3, 2.6 DSS; with OVCAR4, 0 DSS.
`N=C1CCCN1Cc1[nH]c(=O)[nH]c(=O)c1Cl.O=c1[nH]c(=O)n([C@H]2C[C@H](O)[C@@H](CO)O2)cc1C(F)(F)F.O=c1[nH]c(=O)n([C@H]2C[C@H](O)[C@@H](CO)O2)cc1C(F)(F)F` [Trifluridine/tipiracil hydrochloride mixture]: the drug sensitivity score in the test on Kuramochi, in the test with OVCAR3 and in the test with OVCAR4 was 0 DSS in each case.
For `CCCC(=O)Nc1ncnc2c1ncn2[C@@H]1O[C@@H]2COP(=O)(O)O[C@H]2[C@H]1OC(=O)CCC` [Bucladesine (sodium)], the drug sensitivity score in the test with Kuramochi, in the test on OVCAR3 and with OVCAR4 was 0 DSS throughout.
Turning to `COc1cc(CNC(=O)CCCC/C=C/C(C)C)ccc1O` [Capsaicin], the drug sensitivity score in the test with Kuramochi, with OVCAR3 and with OVCAR4 was 0 DSS throughout.
With `Cc1cn(-c2cc(NC(=O)c3ccc(C)c(Nc4nccc(-c5cccnc5)n4)c3)cc(C(F)(F)F)c2)cn1` [Nilotinib], the drug sensitivity score with Kuramochi, in the test on OVCAR3 and with OVCAR4 was 0 DSS throughout.
For `COc1ccc2[nH]c([S+]([O-])Cc3ncc(C)c(OC)c3C)nc2c1` (configuration not stated) [Omeprazole], the drug sensitivity score with Kuramochi, in the test with OVCAR3 and in the test on OVCAR4 was 0 DSS in each case.
With `O=C(O)Cc1ccccc1Nc1c(Cl)cccc1Cl` [Diclofenac (potassium)], the drug sensitivity score with Kuramochi, in the test on OVCAR3 and with OVCAR4 was 0 DSS each time.
With `CCc1oc2ccccc2c1C(=O)c1cc(Br)c(O)c(Br)c1` [Benzbromarone], the drug sensitivity score with Kuramochi, in the test on OVCAR3 and in the test with OVCAR4 was 0 DSS in each case.
Consider `NC[C@H](O)c1ccc(O)c(O)c1` [Norepinephrine], for which the drug sensitivity score in the test on Kuramochi, with OVCAR3 and in the test with OVCAR4 was 0 DSS each time.
For `CC(=O)O[C@@]12CO[C@@H]1C[C@H](O)[C@@]1(C)C(=O)[C@H](O)C3=C(C)[C@@H](OC(=O)[C@H](O)[C@@H](NC(=O)OC(C)(C)C)c4ccccc4)C[C@@](O)([C@@H](OC(=O)c4ccccc4)[C@H]21)C3(C)C` [Docetaxel], the values for the drug sensitivity score in the test on Kuramochi, in the test on OVCAR3 and with OVCAR4 were 1.6 DSS, 1.4 DSS and 0 DSS, respectively.
The like results for `Cc1[nH]c2ccccc2c1CCNCc1ccc(/C=C/C(=O)NO)cc1` [Panobinostat] were, in that order, 10.1 DSS, 9.7 DSS and 2.8 DSS.
For `CC1(C)O[C@@H]2C[C@H]3[C@@H]4CCC5=CC(=O)CC[C@]5(C)[C@@]4(F)[C@@H](O)C[C@]3(C)[C@]2(C(=O)CCl)O1` [Halcinonide], in that order: 0 DSS, 0 DSS and 0 DSS.
For the molecule `C=CC[C@@H]1/C=C(\C)C[C@H](C)C[C@H](OC)[C@H]2O[C@@](O)(C(=O)C(=O)N3CCCC[C@H]3C(=O)O[C@H](/C(C)=C/[C@@H]3CC[C@@H](O)[C@H](OC)C3)[C@H](C)[C@@H](O)CC1=O)[C@H](C)C[C@@H]2OC` [Tacrolimus (monohydrate)], the drug sensitivity score with Kuramochi, in the test with OVCAR3 and in the test on OVCAR4 was 0 DSS each time.
With `COc1cccc2c1C(=O)c1c(O)c3c(c(O)c1C2=O)C[C@@](O)(C(=O)CO)C[C@@H]3O[C@H]1C[C@H](N)[C@H](O)[C@H](C)O1` [Doxorubicin (hydrochloride)], the drug sensitivity score with Kuramochi, in the test with OVCAR3 and in the test on OVCAR4 was 0 DSS in each case.
As for `CN(C)/N=N/c1[nH]cnc1C(N)=O` [Dacarbazine], the drug sensitivity score in the test on Kuramochi stood at 0 DSS; with OVCAR3, 0.2 DSS; with OVCAR4 it was 0 DSS.
Regarding `O=C(c1cc(Cc2n[nH]c(=O)c3ccccc23)ccc1F)N1CCN(C(=O)C2CC2)CC1` [Olaparib], the drug sensitivity score in the test on Kuramochi, in the test with OVCAR3 and in the test with OVCAR4 was 0 DSS in each case.
Consider `O=c1n(CC2CO2)c(=O)n(CC2CO2)c(=O)n1CC1CO1` (configuration not stated) [Triglycidyl isocyanurate], for which the drug sensitivity score in the test on Kuramochi, in the test with OVCAR3 and in the test on OVCAR4 was 0 DSS in each case.
Regarding `C=CCc1ccc(O)c(-c2cc(CC=C)ccc2O)c1` [Magnolol], the drug sensitivity score in the test on Kuramochi, in the test on OVCAR3 and in the test on OVCAR4 was 0 DSS each time.
On to `O=[N+]([O-])O[C@@H]1CO[C@H]2[C@@H]1OC[C@@H]2O` [Isosorbide mononitrate], for which the drug sensitivity score in the test with Kuramochi, in the test on OVCAR3 and in the test on OVCAR4 was 0 DSS in each case.
Consider `Nc1cccc2c1C(=O)N(C1CCC(=O)NC1=O)C2=O` (configuration not stated) [Pomalidomide], for which the drug sensitivity score in the test with Kuramochi, in the test on OVCAR3 and with OVCAR4 was 0 DSS in each case.
`C[C@@H]1CCN(C(=O)CC#N)C[C@@H]1N(C)c1ncnc2[nH]ccc12` [Tofacitinib]: the drug sensitivity score with Kuramochi, in the test on OVCAR3 and in the test with OVCAR4 was 0 DSS each time.
Regarding `CCOC(=O)[C@H](CCc1ccccc1)N[C@@H](C)C(=O)N1Cc2cc(OC)c(OC)cc2C[C@H]1C(=O)O` [Moexipril (hydrochloride)], the drug sensitivity score with Kuramochi, in the test with OVCAR3 and in the test on OVCAR4 was 0 DSS throughout.
As for `O=C(O)c1cc(O)c(O)c(O)c1` [Gallic acid (hydrate)], the drug sensitivity score in the test on Kuramochi, in the test on OVCAR3 and with OVCAR4 was 0 DSS each time.
On to `O=[N+]([O-])c1ccc(-c2cn3c4c(sc3n2)CCCC4)cc1` [Pifithrin-α, p-Nitro, Cyclic], for which the drug sensitivity score in the test with Kuramochi, in the test on OVCAR3 and in the test on OVCAR4 was 0 DSS each time.
For the molecule `OC[C@@H](O)[C@@H](O)[C@H](O)[C@H](O)CO` [D-Mannitol], the drug sensitivity score in the test with Kuramochi, in the test on OVCAR3 and in the test on OVCAR4 was 0 DSS throughout.
`Cn1ncnc1[C@H]1c2n[nH]c(=O)c3cc(F)cc(c23)N[C@@H]1c1ccc(F)cc1` [Talazoparib]: the drug sensitivity score in the test on Kuramochi, with OVCAR3 and in the test on OVCAR4 was 0 DSS each time.
Turning to `COc1cc(C(N)=O)ccc1NC(=O)[C@@H]1N[C@@H](CC(C)(C)C)[C@@]2(C(=O)Nc3cc(Cl)ccc32)[C@H]1c1cccc(Cl)c1F` [RO8994], the drug sensitivity score with Kuramochi, with OVCAR3 and with OVCAR4 was 0 DSS in each case.
Turning to `O=C(c1ccc(F)cc1)C1CCN(CCn2c(=O)[nH]c3ccccc3c2=O)CC1` [Ketanserin (tartrate)], the drug sensitivity score in the test with Kuramochi, in the test with OVCAR3 and with OVCAR4 was 0 DSS each time.
In the case of `CCN1CCN(c2ccc(Nc3cc(N(C)C(=O)Nc4c(Cl)c(OC)cc(OC)c4Cl)ncn3)cc2)CC1` [Infigratinib], the drug sensitivity score stood at 0.7 DSS in the test on Kuramochi, 1.5 DSS in the test with OVCAR3 and 2.3 DSS in the test with OVCAR4.
Consider `O=C(O)CCCCC1CCSS1` (stereo not drawn) [α-Lipoic Acid], for which the drug sensitivity score in the test with Kuramochi, with OVCAR3 and in the test on OVCAR4 was 0 DSS each time.
For `CNC(=O)c1cc(Oc2ccc(NC(=O)Nc3ccc(Cl)c(C(F)(F)F)c3)c(F)c2)ccn1` [Regorafenib (monohydrate)], the drug sensitivity score in the test on Kuramochi, in the test with OVCAR3 and in the test on OVCAR4 was 0 DSS throughout.
Regarding `C[C@@H]1O[C@@H](OC[C@H]2O[C@@H](Oc3c(-c4ccc(O)c(O)c4)oc4cc(O)cc(O)c4c3=O)[C@H](O)[C@@H](O)[C@@H]2O)[C@H](O)[C@H](O)[C@H]1O` [Rutin], the drug sensitivity score with Kuramochi, with OVCAR3 and in the test with OVCAR4 was 0 DSS in each case.
